From PubChem BioAssay (EPA / NIEHS)
This list was built around the results that the source calls inconclusive (neither active nor inactive); the mix of calls is not that of the screen. For some assays here: Potencies beside an inconclusive call are fits to weak or partial responses and may not hold up. Active and inactive are the calls of the source. The calls were made as follows, unless noted: active = hit-call score of the fitted dose curve at least 0.9, where 1 is the maximum; inconclusive = response in the unintended direction; inactive = score below 0.9.

Protein sequences, listed by entry. Tags and fused reporters are not part of them. Lines headed by an entry give the natural chain unless they say otherwise; changes in a name come on top.
UniProt Q96RI1: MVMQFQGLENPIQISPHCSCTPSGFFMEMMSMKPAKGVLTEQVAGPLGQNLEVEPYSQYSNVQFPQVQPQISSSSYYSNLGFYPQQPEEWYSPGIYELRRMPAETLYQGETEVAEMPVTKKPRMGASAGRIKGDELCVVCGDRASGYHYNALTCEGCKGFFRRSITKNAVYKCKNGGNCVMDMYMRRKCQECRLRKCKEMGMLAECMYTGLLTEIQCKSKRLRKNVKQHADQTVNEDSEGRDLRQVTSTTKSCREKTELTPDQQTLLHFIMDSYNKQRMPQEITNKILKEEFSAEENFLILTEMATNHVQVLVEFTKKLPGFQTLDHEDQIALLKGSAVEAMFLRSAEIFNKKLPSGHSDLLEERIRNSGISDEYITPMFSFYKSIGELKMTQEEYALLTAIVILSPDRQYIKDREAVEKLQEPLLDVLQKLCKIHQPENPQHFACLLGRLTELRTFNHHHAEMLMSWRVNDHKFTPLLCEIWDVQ
UniProt Q92731, whole entry, looked up: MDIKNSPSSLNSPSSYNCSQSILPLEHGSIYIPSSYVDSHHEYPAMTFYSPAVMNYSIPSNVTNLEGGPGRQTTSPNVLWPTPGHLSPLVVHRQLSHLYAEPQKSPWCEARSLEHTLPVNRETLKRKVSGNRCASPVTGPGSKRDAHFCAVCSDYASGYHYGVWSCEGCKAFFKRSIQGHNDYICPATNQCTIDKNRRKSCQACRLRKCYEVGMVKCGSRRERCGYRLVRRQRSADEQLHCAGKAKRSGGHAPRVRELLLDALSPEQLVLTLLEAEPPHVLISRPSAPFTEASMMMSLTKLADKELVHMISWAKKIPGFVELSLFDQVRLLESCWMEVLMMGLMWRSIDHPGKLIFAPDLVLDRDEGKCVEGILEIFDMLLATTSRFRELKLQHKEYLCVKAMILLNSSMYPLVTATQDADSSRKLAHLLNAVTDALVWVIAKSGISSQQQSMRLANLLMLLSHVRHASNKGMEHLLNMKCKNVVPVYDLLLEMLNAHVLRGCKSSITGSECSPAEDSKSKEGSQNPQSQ
UniProt P10827: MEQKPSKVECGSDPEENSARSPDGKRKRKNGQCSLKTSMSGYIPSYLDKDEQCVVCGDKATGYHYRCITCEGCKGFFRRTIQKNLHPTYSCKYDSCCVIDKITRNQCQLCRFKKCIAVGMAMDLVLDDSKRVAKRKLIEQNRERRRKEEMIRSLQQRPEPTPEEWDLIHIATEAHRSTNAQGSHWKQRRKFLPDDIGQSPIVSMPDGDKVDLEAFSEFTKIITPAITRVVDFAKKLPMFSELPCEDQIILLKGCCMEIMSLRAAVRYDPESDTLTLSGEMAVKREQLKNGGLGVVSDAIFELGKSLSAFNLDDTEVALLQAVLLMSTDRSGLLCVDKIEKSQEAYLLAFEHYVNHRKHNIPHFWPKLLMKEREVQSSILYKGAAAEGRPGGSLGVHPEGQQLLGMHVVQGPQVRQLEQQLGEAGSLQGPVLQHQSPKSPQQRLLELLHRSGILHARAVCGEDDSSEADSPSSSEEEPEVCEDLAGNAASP
UniProt P11511: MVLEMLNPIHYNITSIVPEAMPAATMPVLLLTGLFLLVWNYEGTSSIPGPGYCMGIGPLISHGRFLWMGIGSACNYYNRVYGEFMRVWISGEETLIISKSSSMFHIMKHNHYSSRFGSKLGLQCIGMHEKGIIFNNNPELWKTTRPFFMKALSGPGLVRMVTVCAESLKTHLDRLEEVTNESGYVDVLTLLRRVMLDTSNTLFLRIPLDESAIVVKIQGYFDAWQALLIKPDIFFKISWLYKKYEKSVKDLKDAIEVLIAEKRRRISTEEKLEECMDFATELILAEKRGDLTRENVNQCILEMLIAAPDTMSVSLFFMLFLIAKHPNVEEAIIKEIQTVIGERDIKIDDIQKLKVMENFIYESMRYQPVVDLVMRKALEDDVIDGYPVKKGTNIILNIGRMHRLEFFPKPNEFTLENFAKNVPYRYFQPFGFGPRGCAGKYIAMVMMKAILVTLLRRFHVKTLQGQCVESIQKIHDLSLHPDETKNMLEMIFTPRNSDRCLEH
UniProt P10635, whole entry, looked up: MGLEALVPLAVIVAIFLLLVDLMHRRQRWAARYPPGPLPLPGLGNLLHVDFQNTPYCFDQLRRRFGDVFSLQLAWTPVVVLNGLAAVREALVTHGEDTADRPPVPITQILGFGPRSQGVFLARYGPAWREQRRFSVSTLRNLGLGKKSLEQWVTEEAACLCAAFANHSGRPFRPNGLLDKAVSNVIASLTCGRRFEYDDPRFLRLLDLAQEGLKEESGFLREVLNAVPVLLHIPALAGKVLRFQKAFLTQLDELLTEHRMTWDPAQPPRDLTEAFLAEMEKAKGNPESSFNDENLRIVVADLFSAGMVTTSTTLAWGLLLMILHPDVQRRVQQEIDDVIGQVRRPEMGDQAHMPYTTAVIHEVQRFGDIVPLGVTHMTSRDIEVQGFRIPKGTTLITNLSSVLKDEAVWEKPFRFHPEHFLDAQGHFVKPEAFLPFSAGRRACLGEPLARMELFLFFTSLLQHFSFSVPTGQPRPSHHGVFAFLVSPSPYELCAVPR
UniProt P08913, whole entry, looked up: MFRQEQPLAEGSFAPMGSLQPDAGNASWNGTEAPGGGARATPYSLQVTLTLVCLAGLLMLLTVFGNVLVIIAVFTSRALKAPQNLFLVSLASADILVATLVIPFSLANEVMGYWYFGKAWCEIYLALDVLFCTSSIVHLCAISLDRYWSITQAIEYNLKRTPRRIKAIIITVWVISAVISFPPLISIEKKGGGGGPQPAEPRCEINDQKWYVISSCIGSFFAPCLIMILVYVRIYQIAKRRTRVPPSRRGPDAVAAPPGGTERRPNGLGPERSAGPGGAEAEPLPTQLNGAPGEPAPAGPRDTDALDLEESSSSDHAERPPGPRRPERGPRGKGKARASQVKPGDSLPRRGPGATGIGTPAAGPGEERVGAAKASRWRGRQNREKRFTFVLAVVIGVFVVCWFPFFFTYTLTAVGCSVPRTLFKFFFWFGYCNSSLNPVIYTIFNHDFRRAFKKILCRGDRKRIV
UniProt P18825, whole entry, looked up: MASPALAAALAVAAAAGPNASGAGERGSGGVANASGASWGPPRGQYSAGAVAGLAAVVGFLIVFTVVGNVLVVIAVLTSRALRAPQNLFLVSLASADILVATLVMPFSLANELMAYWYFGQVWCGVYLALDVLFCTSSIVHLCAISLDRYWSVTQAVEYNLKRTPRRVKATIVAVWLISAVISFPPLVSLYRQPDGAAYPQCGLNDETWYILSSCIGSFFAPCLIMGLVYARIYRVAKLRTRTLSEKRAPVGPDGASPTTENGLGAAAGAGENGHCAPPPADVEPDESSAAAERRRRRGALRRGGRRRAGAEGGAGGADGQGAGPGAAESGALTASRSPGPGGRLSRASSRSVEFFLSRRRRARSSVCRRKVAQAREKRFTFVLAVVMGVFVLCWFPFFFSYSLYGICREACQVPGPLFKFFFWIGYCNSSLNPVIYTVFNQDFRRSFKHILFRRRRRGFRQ
UniProt P14416, whole entry, looked up: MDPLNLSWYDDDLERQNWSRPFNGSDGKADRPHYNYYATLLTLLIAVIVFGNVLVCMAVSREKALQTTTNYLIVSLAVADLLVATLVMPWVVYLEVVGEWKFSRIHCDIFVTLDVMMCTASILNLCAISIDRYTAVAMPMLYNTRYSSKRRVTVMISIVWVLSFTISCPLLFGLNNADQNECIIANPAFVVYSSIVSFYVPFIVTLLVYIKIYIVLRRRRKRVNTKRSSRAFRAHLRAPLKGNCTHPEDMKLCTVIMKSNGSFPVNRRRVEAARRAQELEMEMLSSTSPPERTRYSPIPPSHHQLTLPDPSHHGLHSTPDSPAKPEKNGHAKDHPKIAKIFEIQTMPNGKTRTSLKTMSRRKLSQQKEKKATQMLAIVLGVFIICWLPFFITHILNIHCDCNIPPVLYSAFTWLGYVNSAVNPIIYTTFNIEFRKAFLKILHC
UniProt P22909, whole entry, looked up: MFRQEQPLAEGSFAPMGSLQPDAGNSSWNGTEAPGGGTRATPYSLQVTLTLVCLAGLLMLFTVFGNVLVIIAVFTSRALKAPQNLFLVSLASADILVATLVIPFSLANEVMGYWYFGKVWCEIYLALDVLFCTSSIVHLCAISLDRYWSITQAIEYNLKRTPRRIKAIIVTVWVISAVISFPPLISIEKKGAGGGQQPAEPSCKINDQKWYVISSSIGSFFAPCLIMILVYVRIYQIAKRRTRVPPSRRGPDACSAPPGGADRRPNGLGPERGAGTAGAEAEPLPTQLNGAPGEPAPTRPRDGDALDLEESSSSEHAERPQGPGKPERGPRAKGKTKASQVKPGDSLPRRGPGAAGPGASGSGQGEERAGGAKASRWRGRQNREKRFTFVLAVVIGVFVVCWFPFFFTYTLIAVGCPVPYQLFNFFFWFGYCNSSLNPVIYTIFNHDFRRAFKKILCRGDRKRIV
UniProt P19328, whole entry, looked up: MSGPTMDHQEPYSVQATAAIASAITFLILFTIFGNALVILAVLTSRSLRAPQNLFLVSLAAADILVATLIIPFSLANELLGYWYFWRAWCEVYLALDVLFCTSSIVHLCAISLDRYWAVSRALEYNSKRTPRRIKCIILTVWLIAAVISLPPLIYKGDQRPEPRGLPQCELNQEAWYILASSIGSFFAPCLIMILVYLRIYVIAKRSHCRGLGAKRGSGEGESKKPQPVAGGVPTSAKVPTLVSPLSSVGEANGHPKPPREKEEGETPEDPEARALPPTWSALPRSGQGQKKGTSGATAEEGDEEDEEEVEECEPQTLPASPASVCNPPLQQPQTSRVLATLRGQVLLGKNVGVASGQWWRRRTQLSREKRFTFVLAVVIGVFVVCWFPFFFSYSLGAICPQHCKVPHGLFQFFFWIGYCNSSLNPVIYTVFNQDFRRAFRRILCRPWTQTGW
UniProt P33535, whole entry, looked up: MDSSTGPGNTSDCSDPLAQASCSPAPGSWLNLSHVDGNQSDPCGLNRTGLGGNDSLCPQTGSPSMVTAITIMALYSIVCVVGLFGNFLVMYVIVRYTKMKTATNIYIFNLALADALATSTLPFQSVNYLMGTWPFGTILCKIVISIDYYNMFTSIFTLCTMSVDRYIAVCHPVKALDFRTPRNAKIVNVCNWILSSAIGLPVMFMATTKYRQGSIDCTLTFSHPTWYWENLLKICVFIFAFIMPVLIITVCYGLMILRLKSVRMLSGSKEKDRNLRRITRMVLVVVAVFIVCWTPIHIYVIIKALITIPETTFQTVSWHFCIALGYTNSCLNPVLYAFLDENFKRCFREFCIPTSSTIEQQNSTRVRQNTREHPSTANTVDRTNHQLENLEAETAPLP
UniProt Q08E50: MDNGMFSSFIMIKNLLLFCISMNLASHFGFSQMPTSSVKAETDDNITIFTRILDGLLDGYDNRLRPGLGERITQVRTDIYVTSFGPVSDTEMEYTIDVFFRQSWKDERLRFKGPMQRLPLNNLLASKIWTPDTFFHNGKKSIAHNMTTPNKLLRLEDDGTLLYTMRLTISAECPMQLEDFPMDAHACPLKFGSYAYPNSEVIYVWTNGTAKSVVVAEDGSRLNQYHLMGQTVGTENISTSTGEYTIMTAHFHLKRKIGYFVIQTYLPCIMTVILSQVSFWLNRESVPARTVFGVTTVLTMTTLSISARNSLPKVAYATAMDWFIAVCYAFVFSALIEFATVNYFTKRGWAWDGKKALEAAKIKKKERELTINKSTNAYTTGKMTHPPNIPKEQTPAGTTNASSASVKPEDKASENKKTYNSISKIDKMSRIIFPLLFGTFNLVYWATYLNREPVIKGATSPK
UniProt P31645, whole entry, looked up: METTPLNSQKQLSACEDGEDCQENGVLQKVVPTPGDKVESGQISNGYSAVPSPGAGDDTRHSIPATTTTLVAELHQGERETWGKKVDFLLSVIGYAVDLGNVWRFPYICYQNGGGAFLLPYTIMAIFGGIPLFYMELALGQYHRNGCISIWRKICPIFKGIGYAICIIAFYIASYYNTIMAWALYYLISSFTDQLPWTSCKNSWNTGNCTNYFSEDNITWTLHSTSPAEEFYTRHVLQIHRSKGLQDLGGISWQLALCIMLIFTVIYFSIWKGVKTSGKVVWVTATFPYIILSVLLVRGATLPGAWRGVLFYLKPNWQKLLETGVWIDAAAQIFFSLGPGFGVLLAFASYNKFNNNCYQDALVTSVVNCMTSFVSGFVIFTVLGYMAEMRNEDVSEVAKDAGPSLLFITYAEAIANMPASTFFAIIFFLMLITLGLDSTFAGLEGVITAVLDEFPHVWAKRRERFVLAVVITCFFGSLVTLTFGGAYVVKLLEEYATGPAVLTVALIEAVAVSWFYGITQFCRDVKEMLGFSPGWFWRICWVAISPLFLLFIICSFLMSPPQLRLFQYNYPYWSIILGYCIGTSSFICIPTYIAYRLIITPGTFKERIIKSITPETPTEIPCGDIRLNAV

Assays:
[1] = target: Bile acid receptor (Homo sapiens) (UniProt Q96RI1); test: NVS_NR_hFXR_Agonist: NovaScreen (NVS) Nuclear Receptor Binding Assay for human Farnesoid X Receptor Agonism (FXR) (AID 2283347)
Method in brief: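 Agonist-mode FXR assay read by time-resolved FRET 1 h after compound addition, using isolated human receptor protein without cells. Duplicate 25 uM single-point primary screen, concentration series for confirmed actives; DMSO as baseline.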

[2] = CCTE_Mundy_HCI_hN2_NOG_NeuriteCount: CCTE's Neurite Outgrowth Assay in human hN2 cells for Neurite Count, Mundy Lab (AID 2284219)
Method in brief: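 In this morphology assay, hNP1-derived neurons received test chemical 2 h post-plating and were fixed two days later in warm paraformaldehyde/sucrose containing Hoechst 33342. Neurites, labelled by rabbit anti-βIII-tubulin (1:800) and Alexa Fluor-488 (1:500), were counted automatically.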

[3] = target: Estrogen receptor beta (Homo sapiens) (UniProt Q92731); test: OT_ER_ERbERb_1440: Odyssey Thera (OT) 24-hour HEK293T Protein-Complementation Assay for Estrogen Receptor-beta/-beta Homodimer (AID 2283380);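 also: fluorescence gain from ER beta LBD homodimer complementation read by laser scanning cytometry; scored as signal increase over DMSO baseline for both agonists and antagonists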
Method in brief: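 Fluorescence increase, nuclear for agonists or whole-cell for antagonists, relative to DMSO vehicle, quantified by laser scanning cytometer after fixation and Draq5 staining. Readout from 24 h treatment of HEK293T cells carrying complementation-paired ER beta LBD (aa 310-547).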

[4] = CCTE_Deisenroth_AIME_96WELL_CTox_Active: Cytotoxicity Assessment (CTOX) in CCTE's 96-well Estrogen Receptor Transactivation Assay with AIME metabolic competence (metabolism positive), Deisenroth Lab (AID 2284028)
Method in brief: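 Cytotoxicity in VM7Luc4E2 breast cells after 24 h exposure to medium from a 2 h metabolic pre-incubation with induced rat hepatic S9 in alginate microspheres; fluorescent live-cell protease readout, 10-point series 0.002–200 uM, n=4.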

[5] = target: human Thyroid hormone Receptor alpha (TRa), THRA (gene 7067) (UniProt P10827); test: ATG_hTRa_XSP1: Attagene TRANS-FACTORIAL Multi-Species (XSP1) HepG2 Assay for human Thyroid hormone Receptor alpha (TRa) (AID 2283805)
Method in brief: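 Reporter transcripts from the human TRa-Gal4 TRANS unit quantified by RT-PCR, fluorescent labeling and capillary electrophoresis after 24 hours of chemical exposure in transfected HepG2 cells; medium contains 3 nM 6-alpha-fluorotestosterone. Positive direction fit against DMSO.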

[6] = ATG_M_61_XSP2: Attagene TRANS-FACTORIAL Multi-Species (XSP2) HepG2 Assay for M61 Transcription Factor (Internal Marker) (AID 2283835; active = hit-call score of the fitted dose curve at least 0.9, where 1 is the maximum; inactive = score below 0.9;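 also: active means a rise in signal above the DMSO baseline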)
Method in brief: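 Internal background marker, read as RT-PCR/capillary-electrophoresis reporter mRNA 24 h post-dose in transiently transfected HepG2 cells. Androgen receptor stimulated with 3 nM 6-alpha-fluorotestosterone plus 1.5 nM norgestrel; gain of signal versus DMSO analysed.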

[7] = TOX21_PR_BLA_Followup_Antagonist_viability: Viability Assessment in the Tox21 HEK293 Progesterone Receptor (PR) Antagonism Beta-lactamase Follow-Up Assay (AID 2283936);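 also: cells exposed to compound with R5020 agonist for 16 h; hits lower the luminescence signal meaning cytotoxicity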
Method in brief: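 PR-UAS-bla HEK293T cells in medium with 2% charcoal-stripped FBS were treated with compounds plus R5020 for 16 hr at 37C. After the beta-lactamase read, CellTiter-Glo was added to the same wells and luminescence read after 30 min at room temperature.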

[8] = target: human CYP19A1, CYP19A1 (gene 1588) (UniProt P11511); test: NVS_ADME_hCYP19A1: NovaScreen (NVS) CYP450-related Enzyme Activity (ADME) Assay for human CYP19A1 (AID 2283098);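 also: potency for inhibitors seen as loss of fluorescent enzyme signal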
Method in brief: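 Primary testing was in duplicate at a single 10 uM concentration, with actives followed up in concentration-response series. Fluorescence read-out of recombinant enzyme activity at 0.5 h, cell-free. Acetonitrile was the negative-control baseline.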

[9] = target: human CYP2D6, CYP2D6 (gene 1565) (UniProt P10635); test: NVS_ADME_hCYP2D6: NovaScreen (NVS) CYP450-related Enzyme Activity (ADME) Assay for human CYP2D6 (AID 2283107)
Method in brief: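 Compounds were first tested in duplicate at 10 uM against recombinant enzyme produced in insect cells, with substrate turnover measured by fluorescence after 1 hour. Decreased signal, referenced to acetonitrile vehicle, was taken as reduced enzyme activity. Active chemicals went on to concentration-response testing.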

[10] = target: human Adrenergic, Alpha 2A Receptor (Adra2A), ADRA2A (gene 150) (UniProt P08913); test: NVS_GPCR_hAdra2A: NovaScreen (NVS) G Protein-Coupled Receptor Assay for human Adrenergic, Alpha 2A Receptor (Adra2A) (AID 2283257)
Method in brief: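 Displacement of a specific radioligand from HT29 membrane protein was counted by filter scintillation after 1 h. Compounds were screened in duplicate at 25 uM, and actives were retested in concentration series. Fitting was positive-direction against DMSO.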

[11] = target: human Adrenergic, Alpha 2c Receptor (Adra2C), ADRA2C (gene 152) (UniProt P18825); test: NVS_GPCR_hAdra2C: NovaScreen (NVS) G Protein-Coupled Receptor Assay for human Adrenergic, Alpha 2c Receptor (Adra2C) (AID 2283259)
Method in brief: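 Screened first in duplicate at 25 uM, with actives then run as concentration series. Membranes from Sf9 cells were exposed for 1 h, and displacement of radioligand was counted after filtration, using DMSO as baseline.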

[12] = target: human Dopamine Receptor D2 (DRD2), DRD2 (gene 1813) (UniProt P14416); test: NVS_GPCR_hDRD2s: NovaScreen (NVS) G Protein-Coupled Receptor Assay for human Dopamine Receptor D2 (DRD2) (AID 2283266)
Method in brief: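 Test compound (25 uM, duplicate in the primary screen; concentration series at follow-up) competed with radioligand for human DRD2 in CHO-derived membrane protein. Filter-based scintillation counting was done 1.5 hours after dosing, with loss of signal analysed against DMSO.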

[13] = test system: 5-hydroxytryptamine receptor 2C (pig); test: NVS_GPCR_p5HT2C: NovaScreen (NVS) G Protein-Coupled Receptor Assay for pig Serotonin, 5-Hydroxytryptamine Receptor 2C (5HT2C) (AID 2283288)
Method in brief: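 Radioligand displacement on membranes from pig choroid plexus, detected by filter scintillation counting after 1 h. Tested first at a single 25 uM in duplicate, then in concentration-response for actives; DMSO served as baseline.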

[14] = target: rat Adrenergic Receptor, Alpha 2 (Adra2), Non-selective Binding, Adra2a (gene 25083) (UniProt P22909); test: NVS_GPCR_rAdra2_NonSelective: NovaScreen (NVS) G Protein-Coupled Receptor Assay for rat Adrenergic Receptor, Alpha 2 (Adra2), Non-selective Binding (AID 2283299)
Method in brief: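 Filter-based scintillation counting of radioligand binding to rat cortical membrane receptors, measured 1.25 hours post-dosing; loss of signal versus DMSO indicates displacement. Initial single-concentration duplicate at 25 uM, then concentration series.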

Adra2b (gene 24174) = Adra2b (gene 24174) (UniProt P19328); test: NVS_GPCR_rmAdra2B: NovaScreen (NVS) G Protein-Coupled Receptor Assay for hybird cells Adrenergic, Alpha 2B Receptor (Adra2B) (AID 2283306)
Method in brief: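 Compounds screened first at 25 uM in duplicate, with actives followed up in concentration-response; specific radioligand displacement from hybrid neuroglioma/blastoma cell membrane preparations measured by filter scintillation counting after 1 h, normalized to DMSO.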

[15] = target: rat Opioid Receptor, Non-selective Sodium (Na+) Binding, Oprm1 (gene 25601) (UniProt P33535); test: NVS_GPCR_rOpiate_NonSelectiveNa: NovaScreen (NVS) G Protein-Coupled Receptor Assay for rat Opioid Receptor, Non-selective Sodium (Na+) Binding (AID 2283311)
Method in brief: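 Filtration radioligand binding on rat forebrain membrane preparations, read 1.5 h after dosing. Single-concentration 25 µM primary screen in duplicate, followed by singleton concentration series to 50 µM max for actives; DMSO baseline.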

[16] = target: rat Opioid Receptor, Non-selective Binding, Oprm1 (gene 25601) (UniProt P33535); test: NVS_GPCR_rOpiate_NonSelective: NovaScreen (NVS) G Protein-Coupled Receptor Assay for rat Opioid Receptor, Non-selective Binding (AID 2283318)
Method in brief: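 Filter-based radioligand displacement using rat forebrain membrane preparations, measured 1.5 h post-dosing. Single-concentration duplicate screen at 25 uM, follow-up in concentration series; activity taken as signal loss relative to DMSO.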

[17] = target: bovine Gamma-Aminobutyric Acid Type A Receptor BDZ, alpha 5 site (GABARa5), GABRA5 (gene 523515) (UniProt Q08E50); test: NVS_LGIC_bGABARa5: NovaScreen (NVS) Ligand-Gated Ion Channel Assay for bovine Gamma-Aminobutyric Acid Type A Receptor BDZ, alpha 5 site (GABARa5) (AID 2283323)
Method in brief: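 Tested first in duplicate at a single 25 uM, with hits re-run in concentration series to a 50 uM maximum. Bovine hippocampal membranes; specific radioligand displacement measured by filter scintillation counting 1 hr post-dose.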

[18] = NVS_IC_rCaBTZCHL: NovaScreen (NVS) Ion Channel Assay for Calcium Channel, Type L, Benzothiazepine Site (CaBTZCHL) (AID 2283337)
Method in brief: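 Benzothiazepine-site binding was assessed in a tissue-derived, cell-free rat cortical membrane system. After 1.5 h exposure, radioactivity retained on filters was quantified by scintillation; positive and negative controls accompanied every plate.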

[19] = target: human Serotonin Transporter (SERT), SLC6A4 (gene 6532) (UniProt P31645); test: NVS_TR_hSERT: NovaScreen (NVS) Transporter Assay for human Serotonin Transporter (SERT) (AID 2283372)
Method in brief: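 Human platelet membrane preparation; displacement of radioligand from serotonin transporter measured after 1 h by filtration and scintillation counting. Single 25 uM duplicate screen, then concentration series for actives, with DMSO as negative baseline.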

**Q.** Which results are given for `CC/C(=C(/CC)c1ccc(O)cc1)c1ccc(O)cc1`?
**A.** AC50 [1]: inconclusive: 25 µM; AC50 [2]: active: 9.12 µM

**Q.** For `C=CCOc1nc(OCC=C)nc(OCC=C)n1`, which AC50 [3] is on record?
**A.** active: 25.5 µM

**Q.** Which outcome [4] does the source give for `Cc1cccc(C(C)(C)C)c1O` here?
**A.** inactive

**Q.** Which outcome [5] does the source give for `C[C@]12CC[C@@H]3c4ccc(O)cc4CC[C@H]3[C@@H]1C[C@@H](O)[C@@H]2O` here?
**A.** inactive

**Q.** And the outcome [6]?
**A.** inactive

**Q.** And the AC50 [7]?
**A.** inconclusive: 46.1 µM

**Q.** Which results are given for `O=C(O)CC(O)C(=O)O` (stereo not given)?
**A.** AC50 [8]: inconclusive: 0.273 µM; AC50 [9]: inconclusive: 17.7 µM; outcome [10]: inactive; AC50 [11]: inconclusive: 0.0255 µM; AC50 [12]: inconclusive: 25 µM; outcome [13]: inactive; AC50 [14]: inconclusive: 0.339 µM; AC50 (Adra2b (gene 24174)): inconclusive: 0.00439 µM; AC50 [15]: inconclusive: 6.51 µM; outcome [16]: inactive; AC50 [17]: inconclusive: 25 µM; AC50 [18]: inconclusive: 9.45 µM; AC50 [19]: inconclusive: 25 µM
